Values from PubChem BioAssay AID1508588 (Peter MacCallum Cancer Centre, 2020).
The deposit covers about 18,000 reagents; shown is a part drawn at random. Of all reagents, 790 (4.4%) got an active call. 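Calls rest on a combination of fold-change classes in drug and vehicle arms, not all shown here.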 Unmarked entries are inactive. Reagent sequences are not shown.

Assay: 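Which gene losses make BRAF-mutant melanoma cells more responsive to vemurafenib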 (primary screen)
Cells: human WM266.4 melanoma cells (BRAF V600 mutant)
Knock-down reagent: siRNA pool against human genes, 40 nM
Duration: 96 h from transfection to read-out
Conditions: vemurafenib 300 nM (about IC25), added 48 h after transfection, for 48 h; comparison arm got DMSO vehicle only
Read-out: 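Ratios to non-targeting siRNA for cell gain, counted as DAPI nuclei after minus before drug and averaged over two replicates, and for absorbance-read medium lactate per cell; both binned into fold-change classes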
Direction: cell gain with vemurafenib: higher = more cell gain than with non-targeting siRNA; lactate per cell with vemurafenib: higher = more lactate made per cell
Hit rule: 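a knock-down counts as enhancing when its fold-change classes with vehicle and with vemurafenib, taken together, show a stronger drug effect on cell gain or lactate per cell; exact class pairs not stated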
Meaning of the calls: active = enhances vemurafenib effect; inactive = no enhancement seen

gene symbol	cell gain with vemurafenib	lactate per cell with vemurafenib
AK2	0.23	1.25
WDR93	0.43	1.71
RDH13	0.34	1.43
RNF220	0.37	0.85
WNT10B	0.09 (active)	0.52
THPO	1.01	0.92
ESPNL	0.46	1.11
CT47A7	0.87	0.6
SHLD2	0.11	1.46
CAGE1	0.54	0.84
COA6	0.43	1.72
CHMP7	0.69	0.82
PADI4	0.4	1.07
ADNP2	-0.05	3.31
AP5S1	0.31	0.74
KAT6B	1.17	0.42
DIS3L2	0.79	0.87
ARL6IP5	0.93	0.6
CIAO2B	0.98	0.88
DYNLT5	0.42	0.9
BEST3	0.91	1.21
SNAP47	0.52	0.43
FARP1	0.28	0.99
MAPK7	0.6	1.09
TM4SF4	0.61	0.86
MFNG	0.45	0.57
SEMA7A	0.91	0.8
DOCK11	-0.08 (active)	0.52
SHF	0.11 (active)	0.76
BIRC2	0.43	1.7
AGPAT2	0.73	0.77
SMTN	0.05	1.85
SCNN1D	0.98	0.93
CERK	0.34	0.62
GOLGA3	0.09	0.83
SCN10A	0.53	1.11
PTS	0.91	0.27
PHGDH	0.86	0.59
USP14	0.2	1.98
SDC1	0.12	0.28
LOXL2	0.27	0.69
GALK2	0.36	1.31
YAE1	0.49	1.98
NECAB2	0.44	1.58
OR2T10	0.5	0.64
OR4D5	0.55	1.8
KCNA4	0.67 (active)	0.48
PRAMEF12	0.47	0.79
RPS6KA2	-0.07	1.36
GPRIN3	0.6	0.58
SYNCRIP	0.3	1.28
TRMU	0.51	1.77
TMED10	0.14	1.68
CRYBB2	0.2	1.41
ADGRF5	0.78	0.74
LHPP	0.22	0.9
UBR3	0.59	1.19
TXNL4A	0.27	0.74
DCP1A	0.32	2
SELE	0.45	0.71
COL20A1	-0.25	2.74
NPM2	0.23	1.46
PCBD1	-0.04	2.96
CAPN11	0.67	1.06
GNAS	0.38	1.94
PSMA5	0.08	2.23
RIMS1	0.86	0.82
NXPE3	0.95	0.77
SUV39H1	0.51	0.34
TSLIG3A	0.55	1.33
ENTPD4	0.78	1.48
ANP32B	1.06	0.58
SYVN1	1.03	0.96
AKR1C1	0.7 (active)	0.28
CNBD2	0.29	2.15
WASL	0.78	0.67
UST	0.42 (active)	0.02
PFN1	0.72	1.57
GTF2E1	0.53	0.98
PDIA6	0.72	1.36
STK26	0.85	1.1
RIBC2	0.15	1.08
ZNF540	0.92	0.66
ZNF215	0.82	0.69
